PubChem BioAssay AID504804 – Drosophila RNAi Screening Center, 2011
Aim: 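Fly genes whose loss lessens doxorubicin-driven cell death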 (primary screen). Cells: Drosophila Kc cells. Reagents: long dsRNA against Drosophila genes, 0.5 µg dsRNA per well. Duration: 96 h (48 h knock-down, then 48 h drug). Conditions: doxorubicin 5 µg/ml for 48 h, added 48 h after dsRNA. Measured: 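Luminescent ATP counts per replicate, not normalised, reflecting viable cells after 48 h dsRNA knock-down followed by 48 h of 5 µg/ml doxorubicin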. Reading the numbers: raw ATP luminescence: higher = more viable cells, protection from doxorubicin. Call rule: 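z-score of 2 or more over plate mean in both duplicates, retained only when retests and separate dsRNAs confirm the protection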.
The screen tested about 19,000 reagents; shown is a random part of those with a known target gene and a result. Over the whole deposit, 47 (0.25%) were called active. 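Signals are raw, not normalised; exact z-scores behind calls not deposited; actives needed confirmation, so some wells reaching 2 SD are inactive.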 Reagents against one gene are numbered here. Names joined by + are all predicted targets of the reagent.

| gene knocked down | dsRNA no. | SD above plate mean | raw ATP luminescence, replicate 1 | raw ATP luminescence, replicate 2 | Outcome |
| --- | --- | --- | --- | --- | --- |
| CG9498 (GeneID 33885) | 1 | – | 22970 | 28257 | inactive |
| gzl (GeneID 40791) | 1 | – | 51313 | 12687 | inactive |
| CG6843 (GeneID 40062) | 1 | – | 66510 | 53933 | inactive |
| S-Lap1 (GeneID 38986) | 1 | – | 39213 | 40367 | inactive |
| CG42714 (GeneID 10178862) | 1 | – | 1.51e5 | 1.11e5 | inactive |
| toc (GeneID 33526) | 1 | – | 3.20e5 | 2.69e5 | inactive |
| toc (GeneID 33526) | 2 | – | 2.71e5 | 2.82e5 | inactive |
| toc (GeneID 33526) | 3 | – | 1.19e5 | 71587 | inactive |
| Nha2 (GeneID 42710) | 1 | – | 73610 | 81580 | inactive |
| Nha2 (GeneID 42710) | 2 | – | 29853 | 34647 | inactive |
| Nha2 (GeneID 42710) | 3 | – | 68250 | 67650 | inactive |
| l(2)27Cb (retired record) (GeneID 48760) | 1 | – | 25723 | 32377 | inactive |
| Archease (GeneID 42551) | 1 | – | 47580 | 59660 | inactive |
| CG18088 (GeneID 34219) | 1 | – | 41370 | 75943 | inactive |
| Cyp4e1 (GeneID 44632) | 1 | – | 37240 | 77033 | inactive |
| cos (GeneID 35653) | 1 | – | 56897 | 61517 | inactive |
| CG42362 + CG42363 | 1 | – | 78133 | 68523 | inactive |
| sunz (GeneID 40811) | 1 | 2 to 3 SD above plate mean | 85560 | 89607 | active |
| CG6602 (GeneID 38691) | 1 | – | 72660 | 74130 | inactive |
| tsr (GeneID 37841) | 1 | – | 48410 | 51187 | inactive |
| RpL10Aa (GeneID 41811) | 1 | – | 56860 | 52290 | inactive |
| KCNQ (GeneID 36071) | 1 | – | 30693 | 92303 | inactive |
| KCNQ (GeneID 36071) | 2 | – | 49847 | 86243 | inactive |
| png (GeneID 31084) | 1 | – | 44940 | 40460 | inactive |
| CG9928 (GeneID 34704) | 1 | – | 70260 | 82097 | inactive |
| CG7745 (GeneID 36210) | 1 | – | 44877 | 34400 | inactive |
| CG13510 (GeneID 37596) | 1 | – | 51903 | 73370 | inactive |
| CG17217 (GeneID 34644) | 1 | – | 81303 | 70280 | inactive |
| Uggt (GeneID 40055) | 1 | – | 21257 | 27067 | inactive |
| nAChRalpha3 (GeneID 31767) | 1 | – | 36860 | 39810 | inactive |
| CG14314 (GeneID 42179) | 1 | – | 65250 | 88820 | inactive |
| CG6985 (GeneID 42694) | 1 | – | 61167 | 47390 | inactive |
| CG31910 + snoRNA:Me28S-G2743 (retired record) | 1 | – | 2.24e5 | 2.97e5 | inactive |
| CG3032 (GeneID 31648) | 1 | – | 42380 | 48800 | inactive |

Records listed above with an active call (1):
| gene knocked down | dsRNA no. | SD above plate mean | raw ATP luminescence, replicate 1 | raw ATP luminescence, replicate 2 | Outcome |
| --- | --- | --- | --- | --- | --- |
| sunz (GeneID 40811) | 1 | 2 to 3 SD above plate mean | 85560 | 89607 | active |
